Earlier results, collected in patent publication US20220071208A1, “Pest Repellent Composition” (Kao Corporation, priority 2018, published 2022).
Some results were stated once for a whole list of compounds, not compound by compound.

System: pest
Conditions: content in a repellent product

## ethyl 3-(acetylbutyl)aminopropionate [IR3535]
  effective amount of the existing pest repellent: ≥ 4 % by mass
